Assay results from the supplement of paper PMC3334620.
Over roughly 33,000 sequences, “E-score (-0.5 to 0.5)” has its median near -0.0034; the highest 2% begin near 0.25. The list shows a part of the results.

Target: T1, Yap3 (UniProt P38749)
T1 sequence: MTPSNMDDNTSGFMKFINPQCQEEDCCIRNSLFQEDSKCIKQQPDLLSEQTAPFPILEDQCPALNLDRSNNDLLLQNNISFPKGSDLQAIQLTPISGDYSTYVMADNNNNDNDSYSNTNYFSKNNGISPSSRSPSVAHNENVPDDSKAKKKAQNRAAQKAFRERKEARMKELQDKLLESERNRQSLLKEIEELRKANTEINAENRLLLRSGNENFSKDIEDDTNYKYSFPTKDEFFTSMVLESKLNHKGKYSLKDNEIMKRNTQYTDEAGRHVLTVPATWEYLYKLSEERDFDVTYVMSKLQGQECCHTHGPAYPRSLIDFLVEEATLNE
Test: PBM E-score (8-mer binding enrichment) (E-score (-0.5 to 0.5)); higher = stronger / more preferred TF binding
Details: protein concentration: 100 nM; construct: GST-full length
Method: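 Universal 'all 10-mer' protein binding microarrays (Agilent AMADID 015681) probed with GST-tagged S. cerevisiae TFs (full-length or DBD) made by in vitro transcription/translation (PURExpress), about 100-200 nM. Bound TF was detected with fluorescent anti-GST. Each ungapped 8-mer (which stands for itself and its reverse complement) is scored by the PBM enrichment score (E-score), a modified Wilcoxon-Mann-Whitney statistic from -0.5 to +0.5, computed with the Universal PBM Analysis Suite. Scale: above 0.35 generally sequence-specific binding.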

Row | Sequence | PBM E-score
1 | AAGTAAGT | 0.00102
2 | ACTTATAC | 0.174
3 | CTTGAGAA | -0.0484
4 | GGAGTTTA | -0.0285
5 | AACGTTCC | -0.104
6 | ATTTCGTA | 0.129
7 | ATGCACTC | -0.00115
8 | ACAGATAG | -0.00363
9 | CCGATTTC | -0.0101
10 | AACTTCTC | 0.0525
11 | CCCCGCCC | 0.00985
12 | ATACCAAA | 0.123
13 | ACTTATGG | -0.0318
14 | CCATTGAG | 0.0109
15 | AACAGTAT | 0.192
16 | GCTGGGTA | -0.028
17 | CACCATCC | -0.145
18 | CATCACAC | 0.114
19 | AGATTGCT | 0.00867
20 | AGATACAC | 0.154
21 | ACCGGGCT | -0.223
22 | GCCGATCA | 0.00289
23 | GATTCGAA | 0.142
24 | ACTAATTA | 0.362
25 | CTTCGCCC | -0.229

Row | Sequence | PBM E-score
26 | CATGCAGG | -0.15
27 | AGTGATGC | -0.0267
28 | GTTGAATA | 0.162
29 | AAATCAGC | 0.157
30 | GAACAATC | 0.139
31 | AGTTCCTC | -0.173
32 | CCAACCGG | -0.193
33 | ATAGACAC | -0.0202
34 | TGGACCAA | -0.00121
35 | ACCCTAGG | -0.151
36 | AGCCTCCT | -0.163
37 | AATGGCTA | 0.169
38 | CCCATAAG | 0.0386
39 | AGGCGAGC | -0.187
40 | CACCGACG | -0.121
41 | GTTAGCAA | 0.223
42 | CCAAAAGA | 0.15
43 | GGGTATGA | 0.0924
44 | CGTACCTC | -0.265
45 | AGGCGTAT | 0.0812
46 | ATTCGGCG | -0.00807
47 | AAATGAGC | -0.00997
48 | ATATCCAC | 0.0865
49 | ACATGGGG | -0.0705
50 | GCTAACAC | 0.0247

Another view of part of the listing above:
Row,Sequence,PBM E-score
28,GTTGAATA,0.162
33,ATAGACAC,-0.0202
35,ACCCTAGG,-0.151
36,AGCCTCCT,-0.163
39,AGGCGAGC,-0.187

(continued)

Row | Sequence | PBM E-score
51 | CCCGGCGG | -0.345
52 | CGTCGTCC | -0.0992
53 | CAACGCAA | 0.0467
54 | GGCGAACA | 0.0302
55 | GTCCGGCA | -0.16
56 | ATTAAAAA | 0.285
57 | AGGCAACC | -0.149
58 | AAGGCGAA | -0.0603
59 | ACGTTTTC | 0.153
60 | AAGAATTC | -0.0947
61 | GTCTGAAC | -0.0647
62 | CTCGCACC | -0.114
63 | AACCAGGC | -0.00725
64 | TCGTGAGA | -0.122
65 | TCAAGTCA | 0.0399
66 | AAAGGCGC | -0.0234
67 | AGAGAGCG | -0.0939
68 | CACCAAGC | -0.127
69 | ATGGGGGC | -0.311
70 | CAGTCCCC | -0.275
71 | GGTCTGTA | -0.0177
72 | AAGAAGTA | 0.12
73 | AAGATACA | 0.262
74 | ATATGGGG | -0.108
75 | GCGGACCC | -0.252

Row | Sequence | PBM E-score
76 | GTACGGCA | -0.0161
77 | CAACGGAA | 0.15
78 | CACAAATG | -0.0666
79 | ACTAGACG | 0.0294
80 | ATATGAAC | 0.204
81 | CCAGTGAC | -0.229
82 | ACCGGCAT | 0.0985
83 | CAGATTGG | -0.236
84 | GTCACGGA | -0.0868
85 | ACCGAGGA | 0.00574
86 | ACGCTAGA | -0.117
87 | TAGTGCCA | -0.138
88 | CTTCACTA | 0.0247
89 | CGACTGTA | -0.124
90 | ACACCGGC | -0.0945
91 | AAGCAGTC | -0.0517
92 | TATCCTAA | 0.156
93 | CCATACGA | 0.0281
94 | ACAATCTG | 0.0719
95 | ATCAAGTA | 0.155
96 | TAGTAAAA | 0.148
97 | AGTATGTA | 0.0677
98 | CAAGGCGC | -0.048
99 | AAAATGCG | 0.0493
100 | GTCAATGA | 0.03

Row | Sequence | PBM E-score
101 | CTGAGATA | 0.155
102 | ACTGAGCT | -0.0894
103 | AAAGACTT | -0.108
104 | TAAAGATA | 0.254
105 | GGGTGCAA | 0.00539
106 | GGGAAAGA | -0.0127
107 | AAGTTTAC | 0.0978
108 | TATTCTGA | -0.0529
109 | CTATGGAG | -0.0464
110 | ACACCGGG | -0.138
111 | AGACTGGG | -0.0888
112 | AGTACGGC | -0.0233
113 | GCTTGAGA | -0.199
114 | CTAGACGA | -0.157
115 | ATAGTTTA | 0.0591
116 | ATACCTAC | -0.0217
117 | CCAGCTCC | -0.254
118 | GAATTGCA | 0.101
119 | AGACTGCG | -0.207
120 | GATGACCC | -0.161
121 | ACTCGAAC | -0.0222
122 | CGTGATCA | 0.112
123 | ATAGGAAG | -0.0275
124 | ATGCCAGG | -0.148
125 | AGGAACTA | 0.0401

Row | Sequence | PBM E-score
126 | ATATGCCC | -0.115
127 | TCCACGGA | 0.159
128 | AATCGTTA | -0.00246
129 | CATACAGG | -0.131
130 | CCCCTGAG | -0.229
131 | AGATGTAA | 0.21
132 | ATAAAGCA | 0.151
133 | ATATCAAG | 0.26
134 | CGGTCCAA | -0.17
135 | CTATCATC | 0.0471
136 | ACTGAGGG | -0.182
137 | CACCGTTC | -0.00047
138 | CCGCCACG | -0.182
139 | ACTTGGTC | 0.066
140 | ACTATGGG | -0.152
141 | GGAGCATA | 0.0546
142 | GTTTTCAA | 0.246
143 | ACTGCCAC | -0.0144
144 | AAGCATAC | 0.0585
145 | AGTCGTCC | -0.197
146 | GGCGCTGA | -0.124
147 | ACATGTCG | 0.102
148 | ATCATGGC | 0.0955
149 | GGGTCCGA | -0.169
150 | TACTTTGA | 0.101

Row | Sequence | PBM E-score
151 | TAACGGTA | 0.187
152 | CCAGGAGA | -0.0844
153 | CATGGAGA | -0.0786
154 | GGATCGCA | 0.00507
155 | CCCCTAAA | -0.272
156 | CCTGATAA | 0.144
157 | GTATTAAA | 0.141
158 | CAGGCTGC | -0.111
159 | CCTAACAA | 0.188
160 | CATCGCTC | -0.235
161 | CGGAAAGC | 0.0314
162 | TTCGCGAA | 0.178
163 | CATAGATA | 0.139
164 | TCGATACA | 0.198
165 | AAACTTAG | 0.0547
166 | ATCTGCCC | -0.11
167 | GGCGGTAA | 0.0829
168 | GTTTTGAA | 0.075
169 | CCGATAAC | 0.116
170 | ACAGTGAT | 0.227
171 | ATTAGGAG | 0.142
172 | ATGGAAGC | -0.0433

Fetched one by one from above, two records:
Row | Sequence | PBM E-score
72 | AAGAAGTA | 0.12
96 | TAGTAAAA | 0.148

Shown with tabs: entries from further up.
Row	Sequence	PBM E-score
153	CATGGAGA	-0.0786
154	GGATCGCA	0.00507
155	CCCCTAAA	-0.272
165	AAACTTAG	0.0547
169	CCGATAAC	0.116
172	ATGGAAGC	-0.0433
